Patent US20100310574A1, “METHODS AND COMPOSITIONS FOR THE TREATMENT AND DIAGNOSIS OF STATIN-INDUCED MYOPATHY” (Beth Israel Deaconess Medical Center, priority 2007, published 2010)
At least one compound was matched to its structure with a doubt left.

Tested on: atrogin-1 protein
Test: Atrogin-1 protein in wildtype primary myotubes (immunoblot)
Type: cell-based, mouse

**Q.** For C[C@@H]1C[C@H]2[C@@H]3CCC4=CC(=O)C=C[C@]4(C)[C@@]3(F)[C@@H](O)C[C@]2(C)[C@@]1(O)C(=O)CO [dexamethasone], which atrogin-1 expression is on record?
**A.** activated atrogin-1 expression
